Results published in the supplement of paper PMC12819154, “High-throughput peptide-centric local stability assay extends protein–ligand identification to membrane proteins, tissues and bacteria” (Nature Structural & Molecular Biology, 2025).
This is one part of the list. Most entries show no effect beyond the scatter of the controls.

Protein sequences, listed by entry. Tags and fused reporters are not part of them. Lines headed by an entry give the natural chain unless they say otherwise; changes in a name come on top.
UniProt Q9CQ02, whole entry: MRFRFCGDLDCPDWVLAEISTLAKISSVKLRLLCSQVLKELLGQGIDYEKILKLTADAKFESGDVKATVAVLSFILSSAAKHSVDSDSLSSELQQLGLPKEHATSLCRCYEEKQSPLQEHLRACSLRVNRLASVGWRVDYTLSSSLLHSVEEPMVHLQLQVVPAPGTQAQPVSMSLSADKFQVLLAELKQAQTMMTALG
UniProt Q99PT1: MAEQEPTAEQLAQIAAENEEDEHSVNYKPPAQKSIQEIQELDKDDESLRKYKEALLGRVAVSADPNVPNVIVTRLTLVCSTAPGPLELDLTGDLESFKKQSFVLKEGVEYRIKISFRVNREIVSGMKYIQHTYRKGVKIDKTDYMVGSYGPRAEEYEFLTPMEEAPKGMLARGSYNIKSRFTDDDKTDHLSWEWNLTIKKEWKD
UniProt Q9CQ75: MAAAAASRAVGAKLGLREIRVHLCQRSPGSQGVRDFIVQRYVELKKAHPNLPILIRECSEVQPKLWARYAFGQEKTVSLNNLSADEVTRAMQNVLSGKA
UniProt Q9CQ46: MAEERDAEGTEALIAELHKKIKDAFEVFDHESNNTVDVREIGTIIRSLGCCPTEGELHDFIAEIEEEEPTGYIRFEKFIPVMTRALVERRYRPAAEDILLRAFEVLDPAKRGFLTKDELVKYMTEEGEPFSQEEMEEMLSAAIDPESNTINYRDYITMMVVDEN
UniProt Q9CQQ0: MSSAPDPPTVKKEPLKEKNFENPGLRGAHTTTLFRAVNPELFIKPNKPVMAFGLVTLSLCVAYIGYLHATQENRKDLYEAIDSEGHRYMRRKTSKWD
UniProt Q9CQR6: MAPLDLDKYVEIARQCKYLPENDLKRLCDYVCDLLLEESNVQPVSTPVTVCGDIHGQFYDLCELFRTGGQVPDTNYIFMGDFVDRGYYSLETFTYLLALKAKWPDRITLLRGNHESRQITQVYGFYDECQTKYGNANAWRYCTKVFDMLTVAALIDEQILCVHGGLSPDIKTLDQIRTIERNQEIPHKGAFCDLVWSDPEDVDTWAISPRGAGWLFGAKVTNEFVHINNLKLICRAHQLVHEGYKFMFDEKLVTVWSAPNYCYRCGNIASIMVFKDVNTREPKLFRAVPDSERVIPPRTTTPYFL
UniProt Q9CR26: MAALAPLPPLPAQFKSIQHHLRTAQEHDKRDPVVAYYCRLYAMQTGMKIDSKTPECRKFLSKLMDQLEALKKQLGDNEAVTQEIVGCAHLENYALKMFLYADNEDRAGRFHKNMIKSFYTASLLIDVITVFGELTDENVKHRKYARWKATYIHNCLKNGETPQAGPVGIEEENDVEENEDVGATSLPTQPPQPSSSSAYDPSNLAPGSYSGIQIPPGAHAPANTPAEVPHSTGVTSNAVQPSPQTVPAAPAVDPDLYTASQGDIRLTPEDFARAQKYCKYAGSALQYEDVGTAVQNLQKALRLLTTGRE
UniProt Q99LQ7: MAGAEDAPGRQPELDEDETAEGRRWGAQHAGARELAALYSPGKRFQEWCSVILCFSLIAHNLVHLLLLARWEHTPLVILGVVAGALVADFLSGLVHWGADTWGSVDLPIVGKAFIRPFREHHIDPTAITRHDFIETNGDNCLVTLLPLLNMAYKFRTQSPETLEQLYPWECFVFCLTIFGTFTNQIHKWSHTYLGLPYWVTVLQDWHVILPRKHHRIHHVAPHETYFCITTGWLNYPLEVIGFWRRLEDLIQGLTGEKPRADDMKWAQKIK
UniProt Q9CQV4: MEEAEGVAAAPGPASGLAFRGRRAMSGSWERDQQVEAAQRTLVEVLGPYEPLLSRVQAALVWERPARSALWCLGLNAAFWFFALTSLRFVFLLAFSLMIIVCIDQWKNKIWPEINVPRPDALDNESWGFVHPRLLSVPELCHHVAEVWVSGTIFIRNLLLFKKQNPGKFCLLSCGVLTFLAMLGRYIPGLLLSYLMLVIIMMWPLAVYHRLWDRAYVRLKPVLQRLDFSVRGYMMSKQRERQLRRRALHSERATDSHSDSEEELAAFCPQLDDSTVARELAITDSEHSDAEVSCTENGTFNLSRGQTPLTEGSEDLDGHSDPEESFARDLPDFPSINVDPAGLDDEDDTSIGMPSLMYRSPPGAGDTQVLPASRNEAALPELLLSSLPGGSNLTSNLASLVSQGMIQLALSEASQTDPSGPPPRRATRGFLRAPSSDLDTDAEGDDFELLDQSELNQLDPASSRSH
UniProt Q9CQU5: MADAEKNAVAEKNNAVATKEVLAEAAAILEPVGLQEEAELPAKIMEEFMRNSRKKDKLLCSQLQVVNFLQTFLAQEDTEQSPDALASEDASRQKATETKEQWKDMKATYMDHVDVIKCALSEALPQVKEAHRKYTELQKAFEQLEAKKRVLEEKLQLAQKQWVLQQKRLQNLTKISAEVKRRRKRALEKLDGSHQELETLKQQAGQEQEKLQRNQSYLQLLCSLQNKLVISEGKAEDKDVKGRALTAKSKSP
UniProt Q9CQ18: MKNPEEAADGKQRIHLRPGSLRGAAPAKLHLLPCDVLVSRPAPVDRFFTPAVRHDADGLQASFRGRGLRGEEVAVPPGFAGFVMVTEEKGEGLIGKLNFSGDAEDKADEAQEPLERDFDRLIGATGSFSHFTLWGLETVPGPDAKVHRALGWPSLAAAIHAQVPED
UniProt Q9CR13: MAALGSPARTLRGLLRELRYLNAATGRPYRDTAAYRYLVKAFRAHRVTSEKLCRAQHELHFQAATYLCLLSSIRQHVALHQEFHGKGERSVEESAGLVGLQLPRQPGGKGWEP
UniProt Q99MU3: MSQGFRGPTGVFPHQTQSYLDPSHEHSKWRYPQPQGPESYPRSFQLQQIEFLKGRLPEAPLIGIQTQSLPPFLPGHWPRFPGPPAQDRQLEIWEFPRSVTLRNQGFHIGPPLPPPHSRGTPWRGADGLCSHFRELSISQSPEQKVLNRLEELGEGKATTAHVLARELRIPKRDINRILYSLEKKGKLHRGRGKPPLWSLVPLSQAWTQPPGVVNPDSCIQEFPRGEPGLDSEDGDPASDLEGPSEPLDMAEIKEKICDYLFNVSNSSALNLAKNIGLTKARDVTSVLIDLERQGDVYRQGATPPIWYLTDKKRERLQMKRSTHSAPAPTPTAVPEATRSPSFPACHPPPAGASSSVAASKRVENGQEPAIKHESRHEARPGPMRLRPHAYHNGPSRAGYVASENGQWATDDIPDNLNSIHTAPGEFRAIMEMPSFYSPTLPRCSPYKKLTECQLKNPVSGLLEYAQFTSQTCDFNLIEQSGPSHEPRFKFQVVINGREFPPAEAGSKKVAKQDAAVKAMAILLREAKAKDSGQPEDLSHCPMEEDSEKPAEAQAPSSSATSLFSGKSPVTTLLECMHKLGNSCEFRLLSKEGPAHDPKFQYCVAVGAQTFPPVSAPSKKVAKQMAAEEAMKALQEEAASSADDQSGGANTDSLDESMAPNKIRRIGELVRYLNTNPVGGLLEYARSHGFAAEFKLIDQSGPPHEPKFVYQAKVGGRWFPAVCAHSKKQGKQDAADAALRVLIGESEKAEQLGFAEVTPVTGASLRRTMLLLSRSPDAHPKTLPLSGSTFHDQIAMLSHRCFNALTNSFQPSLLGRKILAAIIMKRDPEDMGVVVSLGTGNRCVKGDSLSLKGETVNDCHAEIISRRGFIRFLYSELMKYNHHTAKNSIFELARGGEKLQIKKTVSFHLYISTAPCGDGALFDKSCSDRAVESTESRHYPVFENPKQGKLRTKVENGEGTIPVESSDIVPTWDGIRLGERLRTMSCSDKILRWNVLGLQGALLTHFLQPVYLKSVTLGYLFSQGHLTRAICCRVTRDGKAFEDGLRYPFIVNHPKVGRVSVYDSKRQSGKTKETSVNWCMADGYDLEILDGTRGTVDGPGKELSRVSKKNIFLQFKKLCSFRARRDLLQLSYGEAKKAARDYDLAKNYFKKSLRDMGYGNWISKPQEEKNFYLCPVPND
UniProt Q9CR11, whole entry: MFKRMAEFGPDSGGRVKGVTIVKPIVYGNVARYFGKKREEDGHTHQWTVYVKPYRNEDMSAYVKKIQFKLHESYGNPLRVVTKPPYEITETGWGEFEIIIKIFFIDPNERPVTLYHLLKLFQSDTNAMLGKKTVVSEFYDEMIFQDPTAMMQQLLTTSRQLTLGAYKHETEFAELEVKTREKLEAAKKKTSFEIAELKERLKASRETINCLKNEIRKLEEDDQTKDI
UniProt Q99N13: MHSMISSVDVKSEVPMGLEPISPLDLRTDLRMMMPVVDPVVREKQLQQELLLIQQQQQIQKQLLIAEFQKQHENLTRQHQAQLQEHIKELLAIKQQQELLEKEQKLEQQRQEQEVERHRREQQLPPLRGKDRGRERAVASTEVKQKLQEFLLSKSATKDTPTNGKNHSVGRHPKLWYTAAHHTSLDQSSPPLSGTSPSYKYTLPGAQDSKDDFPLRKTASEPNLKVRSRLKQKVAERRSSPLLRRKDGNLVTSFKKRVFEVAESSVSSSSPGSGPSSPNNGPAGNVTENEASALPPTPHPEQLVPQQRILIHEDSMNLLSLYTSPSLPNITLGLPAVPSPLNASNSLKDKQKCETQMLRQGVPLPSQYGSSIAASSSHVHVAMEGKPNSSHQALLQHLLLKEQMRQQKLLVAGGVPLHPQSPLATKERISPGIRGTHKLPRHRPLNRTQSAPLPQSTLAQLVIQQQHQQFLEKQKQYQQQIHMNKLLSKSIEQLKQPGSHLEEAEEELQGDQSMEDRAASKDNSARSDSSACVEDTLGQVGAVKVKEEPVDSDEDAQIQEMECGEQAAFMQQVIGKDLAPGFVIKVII
UniProt Q9CQS4: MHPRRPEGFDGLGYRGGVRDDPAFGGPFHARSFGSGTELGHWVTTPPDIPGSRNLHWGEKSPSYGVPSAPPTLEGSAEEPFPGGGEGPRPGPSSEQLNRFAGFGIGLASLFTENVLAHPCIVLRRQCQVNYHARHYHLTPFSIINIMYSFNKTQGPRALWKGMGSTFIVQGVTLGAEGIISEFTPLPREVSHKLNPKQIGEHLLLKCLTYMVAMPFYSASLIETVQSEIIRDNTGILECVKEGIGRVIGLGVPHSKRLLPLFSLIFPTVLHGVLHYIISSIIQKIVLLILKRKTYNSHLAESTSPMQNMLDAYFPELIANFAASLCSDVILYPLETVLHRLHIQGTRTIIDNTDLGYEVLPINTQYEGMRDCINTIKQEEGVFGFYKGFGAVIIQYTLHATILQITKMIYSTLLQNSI
UniProt Q9CQB2: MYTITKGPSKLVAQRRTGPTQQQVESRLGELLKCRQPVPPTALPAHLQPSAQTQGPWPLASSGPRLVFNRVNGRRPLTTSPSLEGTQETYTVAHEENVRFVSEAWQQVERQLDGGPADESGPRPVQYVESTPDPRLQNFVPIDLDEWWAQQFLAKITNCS
UniProt Q9CQS8, whole entry: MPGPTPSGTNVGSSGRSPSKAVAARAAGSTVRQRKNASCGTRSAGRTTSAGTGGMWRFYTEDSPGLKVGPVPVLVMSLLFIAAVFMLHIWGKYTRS
UniProt Q99ML1: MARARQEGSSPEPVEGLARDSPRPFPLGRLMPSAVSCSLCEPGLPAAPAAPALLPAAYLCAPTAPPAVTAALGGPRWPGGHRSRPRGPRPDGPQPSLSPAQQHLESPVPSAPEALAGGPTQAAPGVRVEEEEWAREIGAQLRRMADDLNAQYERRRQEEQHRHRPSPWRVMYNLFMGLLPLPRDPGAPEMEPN
UniProt Q9CQ10: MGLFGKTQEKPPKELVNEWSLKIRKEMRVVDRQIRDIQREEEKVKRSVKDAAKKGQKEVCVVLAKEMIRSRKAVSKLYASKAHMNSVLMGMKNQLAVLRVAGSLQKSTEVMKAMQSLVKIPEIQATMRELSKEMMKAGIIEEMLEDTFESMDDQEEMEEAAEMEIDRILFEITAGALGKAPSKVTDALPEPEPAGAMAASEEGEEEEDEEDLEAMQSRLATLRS
UniProt Q9CQT9: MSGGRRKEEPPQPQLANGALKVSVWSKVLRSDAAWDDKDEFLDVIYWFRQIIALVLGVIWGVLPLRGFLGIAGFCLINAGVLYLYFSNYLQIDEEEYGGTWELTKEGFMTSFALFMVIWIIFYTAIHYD
UniProt Q9CQ56: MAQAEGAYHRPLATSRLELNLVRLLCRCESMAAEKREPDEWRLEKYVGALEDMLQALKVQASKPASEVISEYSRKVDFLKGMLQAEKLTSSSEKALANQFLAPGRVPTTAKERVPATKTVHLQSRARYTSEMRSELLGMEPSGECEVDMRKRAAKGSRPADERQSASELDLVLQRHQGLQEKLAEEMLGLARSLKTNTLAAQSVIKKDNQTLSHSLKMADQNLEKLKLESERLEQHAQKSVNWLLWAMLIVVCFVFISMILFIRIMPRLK
UniProt Q9CPS6: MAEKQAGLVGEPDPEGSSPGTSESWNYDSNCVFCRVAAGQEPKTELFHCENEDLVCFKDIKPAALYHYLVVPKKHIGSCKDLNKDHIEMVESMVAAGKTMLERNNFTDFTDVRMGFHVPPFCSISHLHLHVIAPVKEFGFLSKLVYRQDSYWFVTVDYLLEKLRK

What follows are targets tested with CN[C@@H]1C[C@H]2O[C@@](C)([C@@H]1OC)n1c3ccccc3c3c4c(c5c6ccccc6n2c5c31)C(=O)NC4 [staurosporine] (assay: log2 fold change of tryptic peptide abundance, ligand vs vehicle (limited proteolysis) (log2 ratio); higher = more trypsin-susceptible (destabilized)). Conditions: ligand concentration: 20 uM; sample: mouse liver crude lysate; replicate design: treated separately.
With “UniProt Q9CQV5 (peptide sequence: KGWLSLHTGNLDGEDHAAER, peptide start residue: 66)” the log2 fold change was -0.255.
“UniProt Q9CQ02 (peptide sequence: QSPLQEHLR, peptide start residue: 114)” was tested, and the log2 fold change was 0.253.
Target “UniProt Q99PT1 (peptide sequence: YIQHTYR, peptide start residue: 128)” has a log2 fold change of -0.461.
Work on “UniProt Q9CQ75 (peptide sequence: ECSEVQPK, peptide start residue: 57)” yielded a log2 fold change of 0.215.
“UniProt Q9CQ46 (peptide sequence: AFEVLDPAKR, peptide start residue: 102)” gave a log2 fold change of 0.129.
For “UniProt Q9CQQ0 (peptide sequence: KEPLKEK, peptide start residue: 12)”, the log2 fold change was 0.154.
“UniProt Q9CQR6 (peptide sequence: GAGWLFGAK, peptide start residue: 211)” gave a log2 fold change of 0.0802.
Target “UniProt Q9CR26 (peptide sequence: MFLYADNEDR, peptide start residue: 97)” has a log2 fold change of -0.259.
“UniProt Q99LQ7 (peptide sequence: WGAQHAGAR, peptide start residue: 25)” was tested, and the log2 fold change was -0.161.
With “UniProt Q9CQV4 (peptide sequence: DQQVEAAQR, peptide start residue: 32)” the log2 fold change was 0.104.
In the case of “UniProt Q9CQU5 (peptide sequence: LDGSHQELETLK, peptide start residue: 190)”, the log2 fold change is reported as 0.103.
“UniProt Q9CQ18 (peptide sequence: HDADGLQASFR, peptide start residue: 54)” showed a log2 fold change of 0.164.
With “UniProt Q9CR13 (peptide sequence: QHVALHQEFHGK, peptide start residue: 75)” the log2 fold change was 0.912.
“UniProt Q99MU3 (peptide sequence: NQGFHIGPPLPPPHSR, peptide start residue: 103)” was tested, and the log2 fold change was -0.494.
For “UniProt Q9CR11 (peptide sequence: TSFEIAELKER, peptide start residue: 190)”, the log2 fold change was 0.869.
Target “UniProt Q99N13 (peptide sequence: LQEFLLSK, peptide start residue: 178)” has a log2 fold change of -0.0551.
“UniProt Q9CQS4 (peptide sequence: VIGLGVPHSK, peptide start residue: 247)” showed a log2 fold change of 0.214.
“UniProt Q9CQB2 (peptide sequence: TGPTQQQVESR, peptide start residue: 17)” gave a log2 fold change of 0.161.
“UniProt Q9CQS8 (peptide sequence: PGPTPSGTNVGSSGRSPSK, peptide start residue: 2)” showed a log2 fold change of 0.109.
Target “UniProt Q99ML1 (peptide sequence: ARQEGSSPEPVEGLAR, peptide start residue: 4)” has a log2 fold change of 0.0912.
“UniProt Q9CQ10 (peptide sequence: AHMNSVLMGMK, peptide start residue: 82)” gave a log2 fold change of 0.108.
With “UniProt Q9CQT9 (peptide sequence: RKEEPPQPQLANGALK, peptide start residue: 6)” the log2 fold change was 0.197.
Target “UniProt Q9CQ56 (peptide sequence: CESMAAEKR, peptide start residue: 28)” has a log2 fold change of 0.553.
Work on “UniProt Q9CPS6 (peptide sequence: MGFHVPPFCSISHLHLHVIAPVK, peptide start residue: 114)” yielded a log2 fold change of -0.507.
